These are yes or no findings as the source states them, for the method shown.
What was measured:
Experiment in all cases: condition: MFI <20-fold over isotype control at 2 ug/ml; flow cytometry, transfected 293t cells
[1] = target: T1, chimeric C10orf54: mouse IgV with human STALK (construct CC6) (human/mouse chimera)
T1 sequence: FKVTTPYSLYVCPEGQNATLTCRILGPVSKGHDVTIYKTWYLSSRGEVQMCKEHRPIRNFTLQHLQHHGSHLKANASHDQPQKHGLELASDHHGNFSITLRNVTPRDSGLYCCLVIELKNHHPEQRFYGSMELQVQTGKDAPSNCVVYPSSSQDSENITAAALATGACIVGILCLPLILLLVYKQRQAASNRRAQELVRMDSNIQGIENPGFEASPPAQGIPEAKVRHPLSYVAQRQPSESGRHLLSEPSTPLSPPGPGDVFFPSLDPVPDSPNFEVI

By UniProt entry, the sequences of proteins in these tests, tags left out. Where a name states a change or a piece, a line headed by the entry shows the natural chain unless it says otherwise.
UniProt Q9H7M9: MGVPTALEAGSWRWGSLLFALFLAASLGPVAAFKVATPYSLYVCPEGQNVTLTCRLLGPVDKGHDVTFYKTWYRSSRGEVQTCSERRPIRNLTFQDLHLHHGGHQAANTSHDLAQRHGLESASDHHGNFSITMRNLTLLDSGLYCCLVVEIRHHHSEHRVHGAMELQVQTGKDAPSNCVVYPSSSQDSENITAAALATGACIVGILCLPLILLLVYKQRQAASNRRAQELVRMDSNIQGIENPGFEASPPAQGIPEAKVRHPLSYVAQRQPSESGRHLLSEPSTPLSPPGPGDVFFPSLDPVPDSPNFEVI

[2] = target: chimeric C10orf54: human with mouse loop (construct CC9) (human/mouse chimera) (UniProt Q9H7M9)
[3] = target: T2, full length mouse C10orf54 (construct CC2) (mouse) (UniProt Q9D659)
T2 sequence: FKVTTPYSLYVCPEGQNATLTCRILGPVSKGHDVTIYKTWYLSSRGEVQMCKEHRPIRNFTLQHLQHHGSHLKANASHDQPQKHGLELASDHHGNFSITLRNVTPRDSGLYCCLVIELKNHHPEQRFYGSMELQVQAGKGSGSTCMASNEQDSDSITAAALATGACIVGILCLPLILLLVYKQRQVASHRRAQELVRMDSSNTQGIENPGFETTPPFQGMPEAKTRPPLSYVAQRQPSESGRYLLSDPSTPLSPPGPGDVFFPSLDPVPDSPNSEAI

[4] = target: T3, chimeric C10orf54: mouse with human loop (construct CC10) (human/mouse chimera)
T3 sequence: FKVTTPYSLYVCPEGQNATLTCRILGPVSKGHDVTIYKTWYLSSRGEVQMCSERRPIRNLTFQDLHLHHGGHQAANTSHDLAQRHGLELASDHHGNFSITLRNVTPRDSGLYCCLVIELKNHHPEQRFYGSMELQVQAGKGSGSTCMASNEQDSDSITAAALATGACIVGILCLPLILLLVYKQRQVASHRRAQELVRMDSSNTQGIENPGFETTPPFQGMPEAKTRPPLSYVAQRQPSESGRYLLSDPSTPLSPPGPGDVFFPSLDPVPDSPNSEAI

[5] = target: chimeric C10orf54: first half of IgV human and remainder (including loop) mouse (construct CC7) (human/mouse chimera)
[6] = target: T4, chimeric C10orf54: first half of IgV mouse and remainder (including loop) human (construct CC8) (human/mouse chimera) (UniProt Q9H7M9)
T4 sequence: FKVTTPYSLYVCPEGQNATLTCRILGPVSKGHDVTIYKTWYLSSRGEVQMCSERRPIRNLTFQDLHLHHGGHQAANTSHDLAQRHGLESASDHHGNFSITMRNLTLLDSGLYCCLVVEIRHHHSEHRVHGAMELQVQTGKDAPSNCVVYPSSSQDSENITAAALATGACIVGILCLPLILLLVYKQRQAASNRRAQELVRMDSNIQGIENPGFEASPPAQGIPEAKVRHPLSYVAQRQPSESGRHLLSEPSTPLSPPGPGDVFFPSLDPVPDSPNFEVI

Measured: binding

B1: murine monoclonal antibody 53A (antibody, V domains shown)
VH: EVQLQQSGPELVKPGASVKMSCKASGYTFTSYFMHWVKQKPGQGLEWIGYIYPYNDGTKYNEKFKGKATLTSDKSSSTAYMELSSLTSEDSAVYYCARFDYDTLRYWGQGTTLTVSS
VL: DVVLTQTPLSLPVNIGDQASISCKSTKSLLNSDGFTYLDWYLQKPGQSPQLLIYLVSNRFSGVPDRFSGSGSGTDFTLKISRVEAEDLGVYYCFQSNYFPWTFGGGTKLEIK
no binding: [1] | [2] | [3] | [4] | [5]

B2: murine monoclonal antibody 259A (antibody, V domains shown)
VH: EVQLQQSGPELVKPGASVKMSCKASGYTFTSYFMHWVKQKPGQGLEWIGYIYPYNDGTKYNEKFKGKATLTSDKSSSTAYMDLSSLTSEDSAVYYCARFDYDTLRYWGQGTTLTVSS
VL: DVVLTQTPLSLPVNIGDQASISCKSTKSLLNSDGFTYLDWYLQKPGQSPQLLIYLISNRFSGVPDRFSGSGSGTDFTLKISRVEAEDLGVYYCFQSNYFPWTFGGGTKLEIK
no binding: [1] | [2] | [3] | [4] | [5]

B3: murine monoclonal antibody 39A (antibody, V domains shown)
VH: QVQLQQSGAELMKPGASVKISCKATGYTFSSNWIEWVKQRPGHGLEWIGEILPGSGSTSYNEKFKGKATFTADTSSNTAYMQLSSLTSEDSAVYYCARWLLYYYAMDYWGQGTSVTVSS
VL: DVLMTQTPLSLPVSLGDPASISCRSSQSIVHNNGNTYLEWYLQKPGQSPKLLIYKVSNRFSGVPDRFSGSGSGTDFTLKISRVEAEDLGVYYCFQGSHVPYTFGGGTKLEIK
no binding: [1] | [2] | [3] | [4] | [5]

B4: murine monoclonal antibody 175A (antibody, V domains shown)
VH: QVQLQQSGAELMKPGASVKISCKATGYTFSTHWIEWVKQRPGHGLEWIGEILPGSGSTSYNEKFKGKATFTADTSSNTAYMQLSSLTSEDSAVYYCARWLLYYYAMDYWGQGTSVTVSS
VL: DVLMTQTPLSLPVSLGDQASISCRSSQSIVHSNGNTYLEWYLQKPGQSPKLLIYKLSNRFSGVPDRFSGSGSGTDFTLKISRVEAEDLGVYYCFQGSHFPYTFGGGTKLEIK
no binding: [1] | [2] | [3] | [4] | [6] | [5]

B5: murine monoclonal antibody 124A (antibody, V domains shown)
VH: QVQLQQSGAELMKPGASVKISCKATGYTFSSNWIEWVKQRPGHGLEWMGEILPGSGSTSYNEKFKGKATFTADTSSNTAYMQLSSLTSEDSAVYYCARWLLYYYAMDFWGQGTSVTVSS
VL: DVLMTQTPLSLPVSLGDQASISCRSSQSIVHNNGNTYLEWYLQKPGQSPKLLIYKVSNRFSGVPDRFSGSGSGTDFTLKISRVEAEDLGVYYCFQGSHVPYTFGGGTKLEIK
no binding: [1] | [2] | [3] | [4] | [5]

Source: patent US20190177415A1
